PMC11764150 (2025)

Legend:
[1] = system: COC Apt-AuNP (biotin-ended COC aptamer) (DNA, aptamer) AGGAATTCAGATCTCCCTGCAGTTCGAGGAAGAATAGACCTGCCTTCTAATAGCTCGAGGAGCTCAGGATCCCG; assay: competitive lateral flow assay
[2] = system: MET Apt-AuNP (biotin-ended MET aptamer) (DNA, aptamer) AGGAATTCAGATCTCCCTGCAGAAAACAGACCACCCACTTTGAATCCACTTGACTCGAGGAGCTCAGGATCCCG; assay: competitive lateral flow assay

- binding [1]: no
- binding [2]: no
Compound: CN1CC[C@]23c4c5ccc(O)c4O[C@H]2[C@@H](O)C=C[C@H]3[C@H]1C5
